PubChem BioAssay AID248 (DTP/NCI, 2004)
The list shows only some results of the screen, not a fair sample: it gathers some chemical classes. Other doses and runs of a compound may be missing. T/C: endpoint of the treated group in % of that of the vehicle group. Some doses have a count of surviving animals in place of a T/C: the source files T/C as zero there, which appears to mark a toxic dose or a test without result, not a measured value. Some doses without a T/C left all or most animals alive at the check, yet need not have been tolerated: survival well below the control is almost never listed, so the zero probably covers shortened survival too. Survivors were counted at the toxicity check, usually on the fifth day, unless a day is given; later deaths do not show. Schedules are NCI's codes, taken here to give the interval after Q, in days (D) or hours (H), and the number of doses after X. Where survival is the endpoint, the PubChem record calls one and a half times the control and up active, and a quarter to a half above the control has no call in these data; cut-offs in other NCI protocols can differ. Some doses were run more than once; their values stand side by side, smallest first. Some T/C values are marked as having no survivor count here; that says nothing about deaths at the dose. Some T/C values carry the count of animals alive at the toxicity check (mostly the fifth day); without a count or a note in brackets, all were alive then.

Test system: L1210 leukemia ip in BDF1 mice, survival T/C
Test: NCI In Vivo Anticancer Drug Screen. Data for tumor model L1210 Leukemia (intraperitoneal) in B6D2F1 (BDF1) mice
Conditions: T/C endpoint: mean survival time, higher T/C = longer survival
[1] = dose: 100.0 mg/kg/injection, schedule: Q04DX003 (ip), vehicle: saline
[2] = dose: 200.0 mg/kg/injection, schedule: Q01DX001 (ip), vehicle: carboxymethylcellulose (CMC)
[3] = dose: 300.0 mg/kg/injection, schedule: Q01DX001 (ip), vehicle: carboxymethylcellulose (CMC)
[4] = dose: 100.0 mg/kg/injection, schedule: Q01DX001 (ip), vehicle: saline
[5] = dose: 200.0 mg/kg/injection, schedule: Q01DX001 (ip), vehicle: saline
[6] = dose: 400.0 mg/kg/injection, schedule: Q01DX001 (ip), vehicle: saline
[7] = dose: 75.0 mg/kg/injection, schedule: Q01DX009 (ip), vehicle: Klucel (hydroxypropylcellulose) (HPC)
[8] = dose: 150.0 mg/kg/injection, schedule: Q01DX009 (ip), vehicle: Klucel (hydroxypropylcellulose) (HPC)
[9] = dose: 300.0 mg/kg/injection, schedule: Q01DX009 (ip), vehicle: Klucel (hydroxypropylcellulose) (HPC)

OCCF
T/C (dose: 1.5 mg/kg/injection, schedule: Q01DX009 (ip), vehicle: saline): 113 % of control | T/C (dose: 1.5 mg/kg/injection, schedule: Q04DX003 (ip), vehicle: saline): 106 % of control | survivor count (dose: 3.0 mg/kg/injection, schedule: Q01DX009 (ip), vehicle: saline): 0 of 6 | T/C (dose: 3.0 mg/kg/injection, schedule: Q04DX003 (ip), vehicle: saline): 117 % of control [5 of 6 alive] | survivor count (dose: 6.0 mg/kg/injection, schedule: Q01DX009 (ip), vehicle: saline): 0 of 6 | survivor count (dose: 6.0 mg/kg/injection, schedule: Q04DX003 (ip), vehicle: saline): 0 of 6 | survivor count (dose: 12.5 mg/kg/injection, schedule: Q04DX003 (ip), vehicle: saline): 0 of 6 | survivor count (dose: 25.0 mg/kg/injection, schedule: Q04DX003 (ip), vehicle: saline): 0 of 6 | survivor count (dose: 50.0 mg/kg/injection, schedule: Q04DX003 (ip), vehicle: saline): 0 of 6 | survivor count [1]: 0 of 6 | survivor count (dose: 200.0 mg/kg/injection, schedule: Q04DX003 (ip), vehicle: saline): 0 of 6 | survivor count (dose: 400.0 mg/kg/injection, schedule: Q04DX003 (ip), vehicle: saline): 0 of 6

CC1CN1P(=O)(Nc1ccccn1)N1CC1C (stereo unspecified)
T/C (dose: 29.0 mg/kg/injection, schedule: Q01DX009 (ip), vehicle: carboxymethylcellulose (CMC)): 122 % of control | T/C (dose: 44.0 mg/kg/injection, schedule: Q01DX009 (ip), vehicle: carboxymethylcellulose (CMC)): 134 % of control | T/C (dose: 66.0 mg/kg/injection, schedule: Q01DX009 (ip), vehicle: carboxymethylcellulose (CMC)): 135 % of control | T/C (dose: 66.0 mg/kg/injection, schedule: Q04DX003 (ip), vehicle: saline): 120 and 127 % of control | T/C (dose: 89.0 mg/kg/injection, schedule: Q01DX001 (ip), vehicle: carboxymethylcellulose (CMC)): 120 and 130 % of control | T/C (dose: 100.0 mg/kg/injection, schedule: Q01DX001 (ip), vehicle: carboxymethylcellulose (CMC)): 126 % of control | T/C (dose: 100.0 mg/kg/injection, schedule: Q01DX009 (ip), vehicle: carboxymethylcellulose (CMC)): 101 % of control | T/C (dose: 100.0 mg/kg/injection, schedule: Q04DX003 (ip), vehicle: saline with Tween-80): 159 % of control | T/C [1]: 129 and 140 % of control | T/C (dose: 133.0 mg/kg/injection, schedule: Q01DX001 (ip), vehicle: carboxymethylcellulose (CMC)): 125 and 142 % of control | T/C (dose: 150.0 mg/kg/injection, schedule: Q04DX003 (ip), vehicle: saline): 137 and 142 % of control | T/C [2]: 97 [4 of 6 alive] and 134 % of control [3 of 4 alive] | survivor count [2]: 6 of 6 | T/C (dose: 200.0 mg/kg/injection, schedule: Q04DX003 (ip), vehicle: saline with Tween-80): 134 % of control | T/C [3]: 124 % of control [5 of 6 alive] | survivor count [3]: 1 of 6 | survivor count (dose: 400.0 mg/kg/injection, schedule: Q01DX001 (ip), vehicle: carboxymethylcellulose (CMC)): 2 of 4 | survivor count (dose: 400.0 mg/kg/injection, schedule: Q04DX003 (ip), vehicle: saline with Tween-80): 5 of 6

Nc1ccc([As](=O)(O)O)c(O)c1
T/C (dose: 100.0 mg/kg/injection, schedule: Q01DX003 (ip), vehicle: Klucel (hydroxypropylcellulose) (HPC)): 97 % of control | T/C (dose: 200.0 mg/kg/injection, schedule: Q01DX003 (ip), vehicle: Klucel (hydroxypropylcellulose) (HPC)): 100 % of control [5 of 6 alive] | survivor count (dose: 400.0 mg/kg/injection, schedule: Q01DX003 (ip), vehicle: Klucel (hydroxypropylcellulose) (HPC)): 3 of 6

CC1CC([N+](=O)[O-])C(C2C([N+](=O)[O-])CC(C)CC2[N+](=O)[O-])C([N+](=O)[O-])C1 (stereo unspecified)
T/C [4]: 102 % of control [survivor count not shown] | T/C [5]: 101 % of control [survivor count not shown] | T/C [6]: 98 % of control [survivor count not shown]

NCCCNCCBr
T/C [4]: 111 % of control | T/C [5]: 118 % of control | T/C [6]: 116 % of control

COC(=O)C1(C)COP(=O)(NCc2ccccc2)OC1 (stereo unspecified)
T/C [4]: 94 % of control | survivor count [5]: 4 of 4 | T/C [6]: 89 % of control

ClCCN1CCCCc2ccccc2C1
T/C (dose: 15.0 mg/kg/injection, schedule: Q01DX001 (ip), vehicle: saline): 105 % of control | survivor count (dose: 30.0 mg/kg/injection, schedule: Q01DX001 (ip), vehicle: saline): 3 of 6 | survivor count (dose: 60.0 mg/kg/injection, schedule: Q01DX001 (ip), vehicle: saline): 0 of 6 | survivor count (dose: 75.0 mg/kg/injection, schedule: Q01DX001 (ip), vehicle: saline): 0 of 6 | survivor count (dose: 150.0 mg/kg/injection, schedule: Q01DX001 (ip), vehicle: saline): 0 of 6 | survivor count (dose: 300.0 mg/kg/injection, schedule: Q01DX001 (ip), vehicle: saline): 1 of 6

CCOP(=O)(NC(=S)NC12CC3CC(CC(C3)C1)C2)OCC
T/C [7]: 98 % of control | T/C [8]: 93 % of control | survivor count [9]: 3 of 6

NP(=O)(N(CCCl)CCCl)N(CCCl)CCCl
T/C (dose: 100.0 mg/kg/injection, schedule: Q01DX001 (ip), vehicle: DMSO): 101 % of control | T/C (dose: 200.0 mg/kg/injection, schedule: Q01DX001 (ip), vehicle: DMSO): 94 % of control [2 of 3 alive] | survivor count (dose: 400.0 mg/kg/injection, schedule: Q01DX001 (ip), vehicle: DMSO): 0 of 3

Cc1ccc(NC(=O)NP(=O)(Nc2ccccc2)Nc2ccccc2)cc1Cl
T/C (dose: 50.0 mg/kg/injection, schedule: Q01DX001 (ip), vehicle: alcohol): 102 % of control | T/C (dose: 100.0 mg/kg/injection, schedule: Q01DX001 (ip), vehicle: alcohol): 96 % of control | T/C (dose: 200.0 mg/kg/injection, schedule: Q01DX001 (ip), vehicle: alcohol): 96 % of control | T/C (dose: 400.0 mg/kg/injection, schedule: Q01DX001 (ip), vehicle: alcohol): 96 % of control

N/C(=N\[N+](=O)[O-])NNC=O
T/C [4]: 102 % of control | T/C [5]: 86 % of control | T/C [6]: 105 % of control

Cc1c(C(=O)N(CCCl)CCCl)[nH]c2ccccc12
T/C (dose: 6.25 mg/kg/injection, schedule: Q04DX002 (ip), vehicle: saline): 94 % of control | T/C (dose: 12.5 mg/kg/injection, schedule: Q04DX002 (ip), vehicle: saline): 88 % of control | T/C (dose: 25.0 mg/kg/injection, schedule: Q04DX002 (ip), vehicle: saline): 102 % of control | T/C (dose: 35.0 mg/kg/injection, schedule: Q04DX002 (ip), vehicle: saline): 96 % of control | T/C (dose: 55.0 mg/kg/injection, schedule: Q04DX002 (ip), vehicle: saline): 102 % of control | T/C (dose: 80.0 mg/kg/injection, schedule: Q04DX002 (ip), vehicle: saline): 100 % of control | T/C (dose: 120.0 mg/kg/injection, schedule: Q04DX002 (ip), vehicle: saline): 111 % of control | T/C (dose: 180.0 mg/kg/injection, schedule: Q04DX002 (ip), vehicle: saline): 108 % of control | T/C (dose: 270.0 mg/kg/injection, schedule: Q04DX002 (ip), vehicle: saline): 96 % of control

O=P(Cl)(NC12CC3CC(CC(C3)C1)C2)Oc1ccccc1 (stereo unspecified)
T/C (dose: 6.0 mg/kg/injection, schedule: Q01DX009 (ip), vehicle: Klucel (hydroxypropylcellulose) (HPC)): 101 % of control | T/C (dose: 12.0 mg/kg/injection, schedule: Q01DX009 (ip), vehicle: Klucel (hydroxypropylcellulose) (HPC)): 106 % of control | T/C (dose: 25.0 mg/kg/injection, schedule: Q01DX009 (ip), vehicle: Klucel (hydroxypropylcellulose) (HPC)): 101 % of control | survivor count [7]: 3 of 6 | survivor count [8]: 1 of 6 | survivor count [9]: 0 of 6
